Library screening results

Measurements from “University of Dundee, Small-Polar-MMV Screening Library” (2021), ChEMBL document CHEMBL3988442.

Mtb growth Cornell: 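Whole-cell assay for inhibitors of Mycobacterium tuberculosis growth, labelled Cornell in the record; the read-out is not stated. The concentration is filed as 10 mM, unlikely as a test dose, so the dose is not known. Higher means stronger inhibition (inferred from two other growth screens of the library). Size under these conditions: about 53,000 compounds, about 900 of them at 50% or above in at least one test.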
Mtb heat-shock: 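Assay on Mycobacterium tuberculosis, filed only as a heat shock assay from Cornell; the read-out is not stated. The concentration is filed as 10 mM, unlikely as a test dose, so the dose is not known. Direction is inferred from retests: higher values go with stronger inhibition. Of about 69,000 compounds tested this way, about 930 (1.4%) reached 50% or more in at least one test.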

Results are given as percent effect. The controls that fix the scale are not given in the record; negative values are as filed. The compounds are a random part of those screened. A dash means the value is not listed here; it may have been measured.

| # | SMILES | Mtb growth Cornell | Mtb heat-shock |
|---|---|---|---|
| 1 | `O=C(CO)N1CCC(c2cncc(-c3cccc(Cl)c3)n2)CC1` | - | -2.634% |
| 2 | `Cl.O=C(NCCO)C1(Cc2ccccc2-c2cccnc2)CCOCC1` | -5.37% | -12.52% |
| 3 | `COCCn1cc(CC(=O)Nc2nc[nH]n2)c2ccccc21` | 37.82% | 11.19% |
| 4 | `Cn1c(SCc2noc(C(C)(C)C)n2)nnc1C1CCS(=O)(=O)C1` (stereo unspecified) | -9.353% | -0.3639% |
| 5 | `Cc1noc(C2CCN(C(C)c3nc(C4CC4)no3)CC2)n1` (stereo unspecified) | 17.52% | -10.6% |
| 6 | `CCn1cc(N)c(-c2nnc3n2CCC3)n1` | -41.61% | -24.49% |
| 7 | `Cc1occc1C(=O)N1CCC2(CC1)CN(Cc1nccs1)CCO2.O=C(O)C(F)(F)F` | -35.74% | -38.62% |
| 8 | `CC(C)N(C)S(=O)(=O)c1ccc2c(c1)CCN(C(=O)c1cnccn1)C2` | 12.84% | -33.92% |
| 9 | `CN(CC(F)F)C(=O)c1cn(-c2ccc(Br)cc2)cn1` | - | 3.721% |
| 10 | `O=C(O)C(F)(F)F.[H][C@]12CCN(Cc3ccc(OC)cc3)C[C@@]1([H])OCCN(S(C)(=O)=O)C2` | 3.012% | -37.88% |
| 11 | `Cc1ccc(C(=O)NS(=O)(=O)c2cc(F)ccc2F)c(=O)[nH]1` | - | -0.09362% |
| 12 | `O=C(N1CCN(c2ccccc2O)CC1)C1(O)Cc2ccccc2C1` | - | 0.803% |
| 13 | `Cc1ccc(-n2nnc(C(=O)NCC(F)(F)F)c2C2CC2)cc1` | 9.818% | -0.2317% |
| 14 | `CCc1ccc(CN(C)C(=O)c2ccc(CSc3nnc[nH]3)o2)nc1` | 26.86% | 7.129% |
| 15 | `CCOCCCn1c(NC(=O)c2ccc(C)nc2)nc2ccccc21` | 49.04% | 25.39% |
| 16 | `CN(CCC1CCOCC1)[C@@H]1c2ccccc2C2(CCNCC2)[C@H]1O` | -4.866% | -1.019% |
| 17 | `CCc1cnc(N)nc1NCc1ccc(OC)c(OC)c1` | 13.76% | 5.948% |
| 18 | `Cc1n[nH]c(C)c1CCc1n[nH]c(=O)n1Cc1cccs1` | -6.194% | -32.52% |
| 19 | `Cc1nc(CN(C)C2CCN(CCn3cc(C#N)cn3)C2)no1` (stereo unspecified) | -53.16% | -13.95% |
| 20 | `CSc1ccc(CNC(=O)C2CC(=O)N(C(C)(C)C)C2)cc1` (stereo unspecified) | - | -18.99% |
| 21 | `Cc1c(C(=O)N2CCC(c3nc(C)n4ccsc34)CC2)cnn1C` | -5.267% | -11.44% |
| 22 | `CCOc1cccc(NCc2cnc(N3CCN(C)CC3)nc2)n1` | - | -29.91% |
| 23 | `O=C1NC2(CCN(CC(=O)N3CCOCC3)CC2)Nc2ccccc21` | -30.68% | -4.189% |
| 24 | `Cc1csc(C2(NC(=O)CCc3ccncc3)CCCC2)n1` | - | -15.96% |
| 25 | `COCC1c2c(cnn2C)CCN1Cc1ccc(C)o1` (stereo unspecified) | 8.851% | 2.406% |
| 26 | `CC(C)c1ccc2c(c1)C1(CC(=O)Nc3[nH]ncc31)C(=O)N2C` (stereo unspecified) | 28.5% | -7.285% |
| 27 | `O=C(O)C(F)(F)F.O=C(O)C(F)(F)F.c1ccc(CN2CCC3(CC2)CCN(c2ccccn2)C3)nc1` | 1.456% | 21.85% |
| 28 | `Cc1nn(C)c2c(=O)n(Cc3ccc(Cl)cc3)nnc12` | - | 26.21% |
| 29 | `O=C(O)C(F)(F)F.O=C(O)C(F)(F)F.[H][C@@]12COC[C@]1([H])[C@@H](OCC1CCN(C)CC1)CN2Cc1c(C)noc1C` | -28.88% | 4.3% |
| 30 | `COc1cccc(COCC(=O)N2CCCC(c3ccn[nH]3)C2)c1` (stereo unspecified) | - | -19.28% |
| 31 | `COC[C@H]1CCC[C@]12CN(S(=O)(=O)c1cccs1)CCO2` | 20.88% | -0.393% |
| 32 | `CCc1cc(=O)[nH]c(-c2ccc(NC(C)CN3CCOCC3)nc2)n1` (stereo unspecified) | -18.69% | -13.54% |
| 33 | `CN(C)CCN1CCOCC2(C1)CN(Cc1ccsc1)CCO2.O=C(O)C(F)(F)F.O=C(O)C(F)(F)F.O=C(O)C(F)(F)F` (stereo unspecified) | - | 12.34% |
| 34 | `Cc1oc2c(c1C(=O)N1C[C@H](O)[C@]3(CCCO3)C1)CCCC2` | 20.13% | -5.438% |
| 35 | `CN1CCOC(CNC(=O)CCCOCCc2ccccc2)C1` (stereo unspecified) | -0.0973% | 15.41% |
| 36 | `CC(NC(=O)NCc1cccnc1N1CCCCC1)c1nccs1` (stereo unspecified) | 13.13% | -15.4% |
| 37 | `CC(NC(=O)c1csnn1)c1ccc(OCC2CC2)c(F)c1` (stereo unspecified) | -6.272% | 9.844% |
| 38 | `CCOCC1CN(Cc2ccc3c(c2)OCO3)Cc2ncn(C)c21` (stereo unspecified) | - | -9.096% |
| 39 | `CCS(=O)(=O)N1CCC2(CC1)c1ncc(-c3cccnc3)n1CCN2C` | 9.387% | -5.406% |
| 40 | `CCOC(=O)c1cc2n(n1)CCCO2` | -37.8% | -26.03% |
| 41 | `Clc1cnccc1N1CCC(OC2CCOCC2)CC1` | - | -38.32% |
| 42 | `CCCn1nc2c(cc1=O)CN(Cc1cc(C)no1)CC2` | - | 14.69% |
| 43 | `[H][C@@]12CCN(C(=O)C3CCCC3)[C@]1([H])C(=O)N(c1ccc(C)cc1)C(=O)N2` | - | 5.413% |
| 44 | `CCOCCn1nc(C)cc1C(=O)N1CC[C@](O)(CC)[C@H](O)C1` | -8.534% | 6.847% |
| 45 | `O=C(O)C(F)(F)F.[H][C@@]12COC[C@]1(CNS(C)(=O)=O)CN(CC1CCCC1)C2` | 10.03% | -15.72% |
| 46 | `Cc1ccc(-c2[nH][nH]c(=O)c2CCN)cc1` | - | 3.91% |
| 47 | `Cc1ccc(OC2(C(=O)O)CCN(C(=O)c3nc(C)oc3C)CC2)cn1` | -29.25% | -2.829% |
| 48 | `CCCNC(=O)c1ccc(S(=O)(=O)NC2(COC)CCCC2)cc1` | 2.578% | 3.432% |
| 49 | `CCC(=O)NC1CCCN(C(=O)c2ccc(OCC3CC3)nc2)C1` (stereo unspecified) | - | -14.66% |
| 50 | `COc1cc(C)nc(N2CCN(C(=O)CNC(C)(C)C)CC2)n1` | 4.326% | 26.85% |
| 51 | `Cc1nc2c(c(NC3CC3)n1)CCN(C(=O)C1(C#N)CC1)CC2` | -7.255% | 8.402% |
| 52 | `CC(C)c1ncc(Cl)c(C(=O)N2CCN(C3CC3)CC2)n1` | 1.664% | -9.633% |
| 53 | `Cc1nc(N2CCOCC2)nc2c1COCC21CCN(CC(C)C)C1` (stereo unspecified) | 14.02% | -7.096% |
| 54 | `Cc1nc(NC2CCCC2)cc(C2CCN2c2ncccn2)n1` (stereo unspecified) | 12.42% | 15.47% |
| 55 | `CC(CCn1cccn1)NCc1n[nH]c2c1CCCCC2` (stereo unspecified) | -20.01% | -5.108% |
| 56 | `Cn1c(C(=O)NC(Cc2ccsc2)c2cccnc2)cc(=O)n(C)c1=O` (stereo unspecified) | 0.2671% | 5.186% |
| 57 | `Cc1cc(NC(=O)Cc2ccccc2O)c[nH]c1=O` | 77.58% | 8.98% |
| 58 | `Fc1ccccc1CN1CCCC2(CCN(c3ncccn3)C2)C1` (stereo unspecified) | 18.2% | -4.571% |
| 59 | `CC(C)Cc1cc(CNC(=O)c2ccccc2C2CCNC2)no1` (stereo unspecified) | - | 12.25% |
| 60 | `COc1c(CNCCNC(=O)c2ccc(C)cc2)c(C(C)C)nn1C` | - | -9.394% |
| 61 | `Cc1oc(C)c(C(=O)N2CCCN(c3nccs3)CC2)c1C` | 16.21% | -6.967% |
| 62 | `Cc1nc(C)n(CCNS(=O)(=O)NCc2ccccc2)n1` | 8.562% | 19.24% |
| 63 | `CCN(CC)Cc1nnc2sc(-c3cc(C(C)C)[nH]n3)nn12` | 11.52% | -10.27% |
| 64 | `CN(CCN1CCCCCC1)C(=O)c1cc(CN2CCCC(O)C2)on1` (stereo unspecified) | - | -14.5% |
| 65 | `Cc1cccc(N2CCCC2c2nc(C)ncc2CN(C)C)n1` (stereo unspecified) | 1.264% | -7.076% |
| 66 | `CCC(=O)Nc1cccc(OCC(=O)N(C)Cc2nc(C)c[nH]2)c1` | - | -45.04% |
| 67 | `COc1ccc(CC2(CO)CCN(c3cc(N)ncn3)CC2)cc1` | 0.019% | -15.03% |
| 68 | `Cn1ccc(CN2CCCC23CCN(Cc2cccc(F)c2)CC3)n1.O=C(O)C(F)(F)F.O=C(O)C(F)(F)F` | 8.804% | 9.746% |
| 69 | `O=C(c1cccnc1)N1CCCC(c2ncncc2-c2ccncc2)C1` (stereo unspecified) | -48.66% | -2.653% |
| 70 | `Cc1ncc(CN(C)CC2CCCN2c2cccnn2)s1` (stereo unspecified) | - | 9.769% |
| 71 | `CCCS(=O)(=O)N1CCCC1c1cccc(N(C)C)c1` (stereo unspecified) | 11.36% | 6.732% |
| 72 | `Cc1cccn2cc(CC(=O)N(CCN(C)C)CC3CCCO3)nc12` (stereo unspecified) | -30.29% | -26.68% |
| 73 | `Cc1cccc(-c2nccnc2C2CCCN(C)C2)c1C` (stereo unspecified) | -30.69% | -20.43% |
| 74 | `CC(=O)NCCOc1cccc(Br)c1` | 0.1172% | 4.476% |
| 75 | `CCNc1ncc(C(=O)NCCc2csc(-c3ncccn3)n2)cn1` | - | -141.6% |
| 76 | `CC(C)c1cc(CNC(=O)NCc2cccc(N3CC=CC3)c2)on1` | 26.85% | -7.036% |
| 77 | `O=C(O)c1cc(S(=O)(=O)Nc2cc(F)ccc2F)cc2c1OCCO2` | 28.12% | 7.49% |

Some entries from above, unchanged:

* Cc1cccc(N2CCCC2c2nc(C)ncc2CN(C)C)n1 (stereo unspecified) : Mtb growth Cornell: 1.264%; Mtb heat-shock: -7.076%
* Cn1ccc(CN2CCCC23CCN(Cc2cccc(F)c2)CC3)n1.O=C(O)C(F)(F)F.O=C(O)C(F)(F)F : Mtb growth Cornell: 8.804%; Mtb heat-shock: 9.746%
* Cc1noc(C2CCN(C(C)c3nc(C4CC4)no3)CC2)n1 (stereo unspecified) : Mtb growth Cornell: 17.52%; Mtb heat-shock: -10.6%
* Cc1cccn2cc(CC(=O)N(CCN(C)C)CC3CCCO3)nc12 (stereo unspecified) : Mtb growth Cornell: -30.29%; Mtb heat-shock: -26.68%
* Cc1ccc(-n2nnc(C(=O)NCC(F)(F)F)c2C2CC2)cc1 : Mtb growth Cornell: 9.818%; Mtb heat-shock: -0.2317%
* CCc1ccc(CN(C)C(=O)c2ccc(CSc3nnc[nH]3)o2)nc1 : Mtb growth Cornell: 26.86%; Mtb heat-shock: 7.129%